Results are given in words; binding and its absence hold for the method and conditions named. Binding calls can cover weak binding; strength is not graded here.
Tests used:
[1] = biological target: T1, chemokine receptor CCR1 (human) (UniProt P32246); assay: radioligand binding, membranes of CHO-K1 cells expressing CCR1
T1 sequence (looked up): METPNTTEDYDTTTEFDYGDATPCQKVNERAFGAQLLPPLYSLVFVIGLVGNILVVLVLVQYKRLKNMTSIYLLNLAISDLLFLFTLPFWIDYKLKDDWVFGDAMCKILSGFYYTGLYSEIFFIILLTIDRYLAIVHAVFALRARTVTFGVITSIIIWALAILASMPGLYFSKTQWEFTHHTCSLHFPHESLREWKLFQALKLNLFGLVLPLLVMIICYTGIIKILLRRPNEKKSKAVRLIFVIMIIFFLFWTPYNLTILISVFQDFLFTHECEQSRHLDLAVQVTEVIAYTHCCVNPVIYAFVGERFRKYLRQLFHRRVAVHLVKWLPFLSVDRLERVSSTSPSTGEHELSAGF

[2] = biological target: T2, chemokine receptor CCR3 (human) (UniProt P51677); assay: radioligand binding, membranes of CHO-K1 cells expressing CCR3
T2 sequence (looked up): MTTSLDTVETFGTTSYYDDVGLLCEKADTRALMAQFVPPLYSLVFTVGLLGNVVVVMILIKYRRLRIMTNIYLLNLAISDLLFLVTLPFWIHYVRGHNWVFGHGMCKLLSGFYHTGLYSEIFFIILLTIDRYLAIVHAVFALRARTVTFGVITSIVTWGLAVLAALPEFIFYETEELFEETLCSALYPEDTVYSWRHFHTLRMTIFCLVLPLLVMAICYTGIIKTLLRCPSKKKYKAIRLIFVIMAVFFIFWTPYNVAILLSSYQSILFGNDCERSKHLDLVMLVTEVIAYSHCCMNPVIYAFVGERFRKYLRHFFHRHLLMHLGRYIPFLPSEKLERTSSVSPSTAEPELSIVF

## processed chemokine PHC-1 (HCC-1, residues 9-74) (ligand)
[1]
  binding: binds
[2]
  binding: binds

— EP1224288B1
